# Laboratory results as given in the supplement of paper PMC6411743.
# ± gives the standard deviation of the averaged measurements. The entries are a selection whose mix differs from that of the whole data set.
# Legend:
# Test in all cases: NP40-soluble protein abundance relative to vehicle (solubility fold change) (ratio); higher = more soluble protein in presence of ATP
# [1] = molecular target: T1, CDKAL1 (UniProt Q5VV42)
# T1 sequence (whole entry): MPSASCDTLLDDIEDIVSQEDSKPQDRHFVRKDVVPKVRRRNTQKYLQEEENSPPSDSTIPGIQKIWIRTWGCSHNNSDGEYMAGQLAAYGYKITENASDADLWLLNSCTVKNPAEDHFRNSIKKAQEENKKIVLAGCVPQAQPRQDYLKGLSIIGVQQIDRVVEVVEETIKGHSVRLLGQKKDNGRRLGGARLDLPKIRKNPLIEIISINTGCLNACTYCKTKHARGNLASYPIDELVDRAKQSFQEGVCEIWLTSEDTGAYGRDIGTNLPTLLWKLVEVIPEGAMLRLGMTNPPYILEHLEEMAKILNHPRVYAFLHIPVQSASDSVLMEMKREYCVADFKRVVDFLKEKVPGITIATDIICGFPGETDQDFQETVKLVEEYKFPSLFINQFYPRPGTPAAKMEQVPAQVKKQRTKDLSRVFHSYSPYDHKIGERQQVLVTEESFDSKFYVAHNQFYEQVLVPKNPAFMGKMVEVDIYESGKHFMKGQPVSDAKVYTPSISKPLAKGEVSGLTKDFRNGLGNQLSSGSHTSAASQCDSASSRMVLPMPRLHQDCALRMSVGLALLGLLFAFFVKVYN
# How it was run: (§1)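 In three independent experiments, Jurkat crude lysate made by Dounce homogenisation was treated for 10 min at room temperature and then 3 min at 37 °C with eight concentrations ranging from 0.1 to 10 mM. It was then solubilised with 0.8% NP40 plus benzonase for 60 min at 4 °C and ultracentrifuged. The supernatant was TMT-labelled for LC-MS/MS, and each value is the fold change against the detergent-processed vehicle for the same replicate, using vsn-normalised intensities.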
# [2] = molecular target: T2, DDX59 (UniProt Q5T1V6)
# T2 sequence (whole entry): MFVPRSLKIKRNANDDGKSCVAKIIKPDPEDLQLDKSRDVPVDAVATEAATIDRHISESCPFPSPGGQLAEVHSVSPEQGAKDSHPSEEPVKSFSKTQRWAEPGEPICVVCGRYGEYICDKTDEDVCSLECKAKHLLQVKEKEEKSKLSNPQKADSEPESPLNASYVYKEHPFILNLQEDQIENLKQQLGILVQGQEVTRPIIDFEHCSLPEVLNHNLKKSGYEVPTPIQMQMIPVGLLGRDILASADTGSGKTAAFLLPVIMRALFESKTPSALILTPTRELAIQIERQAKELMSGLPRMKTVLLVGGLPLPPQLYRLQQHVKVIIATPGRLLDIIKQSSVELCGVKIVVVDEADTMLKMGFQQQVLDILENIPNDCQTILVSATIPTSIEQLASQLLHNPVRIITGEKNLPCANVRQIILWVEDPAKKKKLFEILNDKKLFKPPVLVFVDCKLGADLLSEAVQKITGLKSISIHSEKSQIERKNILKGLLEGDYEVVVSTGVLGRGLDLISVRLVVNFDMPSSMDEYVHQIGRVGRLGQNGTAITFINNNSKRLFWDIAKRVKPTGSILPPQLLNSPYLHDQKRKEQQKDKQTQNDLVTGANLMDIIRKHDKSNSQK
# How it was run: as §1
# [3] = molecular target: T3, PRPF38B (UniProt Q5VTL8)
# T3 sequence (whole entry): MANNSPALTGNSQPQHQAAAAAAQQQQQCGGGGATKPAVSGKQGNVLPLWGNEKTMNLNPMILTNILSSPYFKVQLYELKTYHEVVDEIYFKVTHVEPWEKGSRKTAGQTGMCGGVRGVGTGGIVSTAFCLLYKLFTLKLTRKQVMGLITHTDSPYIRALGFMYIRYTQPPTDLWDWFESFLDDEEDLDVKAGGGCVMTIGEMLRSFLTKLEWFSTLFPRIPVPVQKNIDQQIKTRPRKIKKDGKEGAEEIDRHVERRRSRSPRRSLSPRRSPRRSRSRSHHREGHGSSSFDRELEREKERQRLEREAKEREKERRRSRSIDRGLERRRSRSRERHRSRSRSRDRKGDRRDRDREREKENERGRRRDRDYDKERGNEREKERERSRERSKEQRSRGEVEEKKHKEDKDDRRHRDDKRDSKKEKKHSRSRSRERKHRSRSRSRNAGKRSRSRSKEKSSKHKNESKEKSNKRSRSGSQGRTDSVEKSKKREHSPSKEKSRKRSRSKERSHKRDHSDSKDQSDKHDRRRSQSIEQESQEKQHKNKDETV
# How it was run: as §1
# [4] = molecular target: T4, Q5SZG2 and related entries (UniProt Q8TAK5)
# T4 sequence (whole entry): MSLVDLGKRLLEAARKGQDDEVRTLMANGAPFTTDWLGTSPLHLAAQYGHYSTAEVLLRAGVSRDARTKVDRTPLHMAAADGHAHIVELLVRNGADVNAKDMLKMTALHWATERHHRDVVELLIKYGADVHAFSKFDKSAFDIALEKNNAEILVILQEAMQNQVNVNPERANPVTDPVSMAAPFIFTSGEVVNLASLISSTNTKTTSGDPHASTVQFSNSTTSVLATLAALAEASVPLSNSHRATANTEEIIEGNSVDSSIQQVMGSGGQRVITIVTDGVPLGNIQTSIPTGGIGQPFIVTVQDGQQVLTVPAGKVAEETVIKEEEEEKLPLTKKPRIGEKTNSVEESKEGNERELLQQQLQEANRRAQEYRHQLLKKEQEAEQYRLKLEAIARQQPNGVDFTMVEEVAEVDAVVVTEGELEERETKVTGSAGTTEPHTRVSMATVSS
# How it was run: as §1
# [5] = molecular target: T5, Q5TCJ5 and related entries (UniProt Q9H3S1)
# T5 sequence (whole entry): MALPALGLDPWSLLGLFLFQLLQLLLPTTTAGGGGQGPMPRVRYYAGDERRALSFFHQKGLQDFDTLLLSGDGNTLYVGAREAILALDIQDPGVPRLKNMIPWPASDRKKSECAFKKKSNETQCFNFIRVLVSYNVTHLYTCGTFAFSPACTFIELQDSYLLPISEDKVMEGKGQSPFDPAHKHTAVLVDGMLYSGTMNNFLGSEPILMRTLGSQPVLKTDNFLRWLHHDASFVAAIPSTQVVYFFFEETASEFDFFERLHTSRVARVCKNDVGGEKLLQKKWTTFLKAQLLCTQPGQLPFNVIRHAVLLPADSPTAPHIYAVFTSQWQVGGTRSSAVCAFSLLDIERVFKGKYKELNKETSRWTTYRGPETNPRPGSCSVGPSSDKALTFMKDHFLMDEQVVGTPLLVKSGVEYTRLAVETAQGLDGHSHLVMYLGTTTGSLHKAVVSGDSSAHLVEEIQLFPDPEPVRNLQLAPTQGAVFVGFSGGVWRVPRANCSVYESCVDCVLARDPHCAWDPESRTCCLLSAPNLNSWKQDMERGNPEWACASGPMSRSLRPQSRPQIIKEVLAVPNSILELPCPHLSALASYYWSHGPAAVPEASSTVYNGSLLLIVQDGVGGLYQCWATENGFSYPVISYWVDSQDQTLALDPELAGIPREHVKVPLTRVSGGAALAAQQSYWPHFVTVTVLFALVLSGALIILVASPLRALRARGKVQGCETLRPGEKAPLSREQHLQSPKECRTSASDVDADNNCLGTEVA
# How it was run: as §1
# [6] = molecular target: T6, RABL3 (UniProt Q5HYI8)
# T6 sequence (whole entry): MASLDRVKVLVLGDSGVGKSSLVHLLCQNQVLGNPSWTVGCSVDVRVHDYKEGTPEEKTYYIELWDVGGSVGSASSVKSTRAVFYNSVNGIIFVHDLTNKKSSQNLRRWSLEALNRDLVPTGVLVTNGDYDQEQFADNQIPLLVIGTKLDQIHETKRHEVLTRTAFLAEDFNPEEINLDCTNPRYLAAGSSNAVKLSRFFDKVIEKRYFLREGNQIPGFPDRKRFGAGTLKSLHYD
# How it was run: as §1
# [7] = molecular target: T7, UniProt Q58A45 and related entries
# T7 sequence (whole entry): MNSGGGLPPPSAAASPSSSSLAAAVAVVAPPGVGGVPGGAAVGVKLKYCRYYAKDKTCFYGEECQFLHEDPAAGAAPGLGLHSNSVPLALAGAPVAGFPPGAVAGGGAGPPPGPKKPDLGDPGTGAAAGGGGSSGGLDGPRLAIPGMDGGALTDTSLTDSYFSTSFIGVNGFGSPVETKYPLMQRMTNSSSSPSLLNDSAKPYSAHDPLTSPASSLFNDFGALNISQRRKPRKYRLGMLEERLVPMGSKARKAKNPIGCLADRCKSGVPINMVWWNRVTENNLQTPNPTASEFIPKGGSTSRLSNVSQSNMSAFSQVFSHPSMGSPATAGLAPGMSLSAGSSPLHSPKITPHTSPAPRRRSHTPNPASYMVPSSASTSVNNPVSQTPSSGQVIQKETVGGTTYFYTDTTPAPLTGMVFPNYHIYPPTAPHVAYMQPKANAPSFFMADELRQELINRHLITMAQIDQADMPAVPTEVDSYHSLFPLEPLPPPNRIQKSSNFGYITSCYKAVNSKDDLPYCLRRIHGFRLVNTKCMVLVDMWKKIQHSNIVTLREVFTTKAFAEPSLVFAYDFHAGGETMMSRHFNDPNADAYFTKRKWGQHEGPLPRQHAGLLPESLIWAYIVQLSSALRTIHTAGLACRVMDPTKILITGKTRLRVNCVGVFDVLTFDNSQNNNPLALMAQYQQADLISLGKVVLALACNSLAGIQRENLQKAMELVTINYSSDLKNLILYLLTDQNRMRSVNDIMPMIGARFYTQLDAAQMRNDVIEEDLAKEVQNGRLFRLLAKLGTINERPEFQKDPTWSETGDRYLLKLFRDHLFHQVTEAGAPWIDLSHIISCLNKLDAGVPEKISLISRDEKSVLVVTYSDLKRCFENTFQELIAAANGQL
# How it was run: as §1
# [8] = molecular target: T8, UniProt Q5SGD2 and related entries
# T8 sequence (whole entry): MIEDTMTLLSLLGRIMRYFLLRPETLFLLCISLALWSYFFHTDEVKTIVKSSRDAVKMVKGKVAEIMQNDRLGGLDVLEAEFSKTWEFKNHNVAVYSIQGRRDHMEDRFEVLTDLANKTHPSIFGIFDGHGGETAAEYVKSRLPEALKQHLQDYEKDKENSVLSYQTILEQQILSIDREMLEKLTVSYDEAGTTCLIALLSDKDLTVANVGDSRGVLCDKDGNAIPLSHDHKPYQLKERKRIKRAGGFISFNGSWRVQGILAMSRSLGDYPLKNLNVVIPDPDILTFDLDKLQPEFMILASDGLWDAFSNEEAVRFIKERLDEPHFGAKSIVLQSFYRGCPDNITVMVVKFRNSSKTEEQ
# How it was run: as §1
structure (smiles),measurement,setting,value
Nc1ncnc2c1ncn2[C@@H]1O[C@H](COP(=O)(O)OP(=O)(O)OP(=O)(O)O)[C@@H](O)[C@H]1O [adenosine triphosphate],NP40-soluble protein abundance,[1]; concentration: 1mM,1.01 ± 0.042
same,NP40-soluble protein abundance,[1]; concentration: 2mM,0.995 ± 0.024
same,NP40-soluble protein abundance,[1]; concentration: 4mM,0.975 ± 0.018
same,NP40-soluble protein abundance,[1]; concentration: 6mM,0.982 ± 0.025
same,NP40-soluble protein abundance,[1]; concentration: 8mM,0.999 ± 0.029
same,NP40-soluble protein abundance,[1]; concentration: 10mM,0.9904 ± 0.0045
same,NP40-soluble protein abundance,[2]; concentration: 1mM,1.01 ± 0.056
same,NP40-soluble protein abundance,[2]; concentration: 2mM,0.999 ± 0.031
same,NP40-soluble protein abundance,[2]; concentration: 4mM,1 ± 0.037
same,NP40-soluble protein abundance,[2]; concentration: 6mM,0.966 ± 0.066
same,NP40-soluble protein abundance,[2]; concentration: 8mM,0.978 ± 0.047
same,NP40-soluble protein abundance,[2]; concentration: 10mM,0.982 ± 0.022
same,NP40-soluble protein abundance,[3]; concentration: 1mM,1.21 ± 0.072
same,NP40-soluble protein abundance,[3]; concentration: 2mM,1.25 ± 0.096
same,NP40-soluble protein abundance,[3]; concentration: 4mM,1.31 ± 0.051
same,NP40-soluble protein abundance,[3]; concentration: 6mM,1.48 ± 0.09
same,NP40-soluble protein abundance,[3]; concentration: 8mM,1.44 ± 0.084
same,NP40-soluble protein abundance,[3]; concentration: 10mM,1.52 ± 0.14
same,NP40-soluble protein abundance,[4]; concentration: 1mM,0.978 ± 0.13
same,NP40-soluble protein abundance,[4]; concentration: 2mM,0.967 ± 0.059
same,NP40-soluble protein abundance,[4]; concentration: 4mM,1.02 ± 0.019
same,NP40-soluble protein abundance,[4]; concentration: 6mM,0.961 ± 0.047
same,NP40-soluble protein abundance,[4]; concentration: 8mM,0.937 ± 0.067
same,NP40-soluble protein abundance,[4]; concentration: 10mM,0.931 ± 0.036
same,NP40-soluble protein abundance,[5]; concentration: 1mM,1.03 ± 0.058
same,NP40-soluble protein abundance,[5]; concentration: 2mM,1.08 ± 0.08
same,NP40-soluble protein abundance,[5]; concentration: 4mM,1.09 ± 0.057
same,NP40-soluble protein abundance,[5]; concentration: 6mM,1.04 ± 0.033
same,NP40-soluble protein abundance,[5]; concentration: 8mM,0.981 ± 0.043
same,NP40-soluble protein abundance,[5]; concentration: 10mM,1.03 ± 0.051
same,NP40-soluble protein abundance,[6]; concentration: 1mM,1.04 ± 0.045
same,NP40-soluble protein abundance,[6]; concentration: 2mM,1 ± 0.025
same,NP40-soluble protein abundance,[6]; concentration: 4mM,1 ± 0.018
same,NP40-soluble protein abundance,[6]; concentration: 6mM,0.972 ± 0.024
same,NP40-soluble protein abundance,[6]; concentration: 8mM,1 ± 0.038
same,NP40-soluble protein abundance,[6]; concentration: 10mM,0.991 ± 0.055
same,NP40-soluble protein abundance,[7]; concentration: 1mM,1.077 ± 0.0091
same,NP40-soluble protein abundance,[7]; concentration: 2mM,1.09 ± 0.034
same,NP40-soluble protein abundance,[7]; concentration: 4mM,1.08 ± 0.015
same,NP40-soluble protein abundance,[7]; concentration: 6mM,1.06 ± 0.035
same,NP40-soluble protein abundance,[7]; concentration: 8mM,1.12 ± 0.052
same,NP40-soluble protein abundance,[7]; concentration: 10mM,1.17 ± 0.039
same,NP40-soluble protein abundance,[8]; concentration: 1mM,1.03 ± 0.046
same,NP40-soluble protein abundance,[8]; concentration: 2mM,1.02 ± 0.051
same,NP40-soluble protein abundance,[8]; concentration: 4mM,1.05 ± 0.087
same,NP40-soluble protein abundance,[8]; concentration: 6mM,1.06 ± 0.048
same,NP40-soluble protein abundance,[8]; concentration: 8mM,1.05 ± 0.15
same,NP40-soluble protein abundance,[8]; concentration: 10mM,1.05 ± 0.013

# Shown bar-delimited: entries from further up.
structure (smiles) | measurement | setting | value
Nc1ncnc2c1ncn2[C@@H]1O[C@H](COP(=O)(O)OP(=O)(O)OP(=O)(O)O)[C@@H](O)[C@H]1O [adenosine triphosphate] | NP40-soluble protein abundance | [7]; concentration: 4mM | 1.08 ± 0.015
same | NP40-soluble protein abundance | [7]; concentration: 6mM | 1.06 ± 0.035
